Test results published in PMC7819943, “Rice protein-binding microarrays: a tool to detect cis-acting elements near promoter regions in rice”.
The other results are listed elsewhere or left out.

The chains behind the UniProt entries cited, without tags or fusion partners.
UniProt Q0JBA9, entry or part of it: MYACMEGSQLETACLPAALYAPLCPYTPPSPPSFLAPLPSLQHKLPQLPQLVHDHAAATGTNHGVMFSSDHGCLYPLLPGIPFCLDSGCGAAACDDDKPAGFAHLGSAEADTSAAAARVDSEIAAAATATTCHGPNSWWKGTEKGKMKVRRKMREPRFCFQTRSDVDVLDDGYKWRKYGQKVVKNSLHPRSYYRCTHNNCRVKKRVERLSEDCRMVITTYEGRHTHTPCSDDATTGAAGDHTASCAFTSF

Molecular target: OsWRKY34 (Oryza sativa, UniProt Q0JBA9 1-250)
Experiment: protein-binding microarray (RPBM); PBS, 2% BSA, 51.3 ng/ul salmon testes DNA, 50 uM zinc acetate, 200 nM TF, 25 C, 1 h; high values mean tight binding
Conditions: protein: recombinant; tags: N-terminal polyhistidine and DsRed monomer fusion (pET32a); label: CyDye5-dUTP incorporated in the synthesized complementary strand; 3' TTTTT single-stranded linker to array surface; dsDNA, one strand shown
Outline: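 A custom Agilent array was converted to double-stranded form by primer extension with Cy5-dUTP and blocked with 2% BSA. Protein at 200 nM in PBS with 2% BSA, salmon testes DNA and 50 µM zinc acetate was applied for 1 h at 25 °C, followed by washing. The proteins were polyhistidine–DsRed N-terminal fusions of transcription factors, expressed in E. coli BL21-CodonPlus and Ni–NTA-purified. The binding signal is per-feature fluorescence intensity (arbitrary units) from an Axon 4000B scanner.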

| Sequence | binding signal |
| --- | --- |
| GCCGCGCGTTACCGCCGATCTCCATCCCGATGCCCCACTCCGGAGTCACCTAGTGCAG | 8090 fluorescence intensity (a.u.) |
| ACCTTGTCATCTTCCTCATCTTCGACAGCTCCTCGCATGCCGGAGTCACCTAGTGCAG | 8570 fluorescence intensity (a.u.) |
| CTTCTCAAAATCTGCTCAACCACAGTCCTAATTTCTATAGCGGAGTCACCTAGTGCAG | 9160 fluorescence intensity (a.u.) |
| TGGCGGTGGCGTTGGAGGAGGGTTTGGTGGCGGAAAAGGTCGGAGTCACCTAGTGCAG | 10300 fluorescence intensity (a.u.) |
| CTCTCTGTCCCTGCAAACACGCTTCCTGCCTCCTCTCATTCGGAGTCACCTAGTGCAG | 8590 fluorescence intensity (a.u.) |
| ATAAGAGAATTCAATTTTTTTTACTGCGTCACATAATTTTCGGAGTCACCTAGTGCAG | 8480 fluorescence intensity (a.u.) |
| TTCCTTTTGTGTTGTTTCCCTTTCAGTTTCATCTTTTGCTCGGAGTCACCTAGTGCAG | 8110 fluorescence intensity (a.u.) |
| GTGAGCTCCACGCGCCTATATCTATCCCTTTCTATCACCTCGGAGTCACCTAGTGCAG | 8100 fluorescence intensity (a.u.) |
| GCCGCCGCGGCCATCCCGCTCATCGACCTCGCCAAGGCCGCGGAGTCACCTAGTGCAG | 9830 fluorescence intensity (a.u.) |
| ATGTACTAAAAAGTCAACGGTGTCAAACATTTTGAAACGGCGGAGTCACCTAGTGCAG | 12600 fluorescence intensity (a.u.) |
| TCATACTATTATATTCTATGCTCTGGATCTACACATATGTCGGAGTCACCTAGTGCAG | 10100 fluorescence intensity (a.u.) |
| GCAGACCATCAAATGCGAGCATCCATTCTTTGTCTGGATTCGGAGTCACCTAGTGCAG | 10300 fluorescence intensity (a.u.) |
| TCTTCTACTCCCTCCGCCCCAAATTAGTTGTCTCTTTAGGCGGAGTCACCTAGTGCAG | 8160 fluorescence intensity (a.u.) |
| GGGATTTCCATCGTTTTGGGTTGGCATATCTACGAATAAGCGGAGTCACCTAGTGCAG | 8620 fluorescence intensity (a.u.) |
| ACCTTTCATTTGTGGCGCATTAAACATTGGTATCTAACATCGGAGTCACCTAGTGCAG | 9070 fluorescence intensity (a.u.) |
| CCTATTTTACCCTCAACTATCTTCCCACTCTCACATAAACCGGAGTCACCTAGTGCAG | 8620 fluorescence intensity (a.u.) |
| ACTTTTGGCTGCCACAGTTTGTTAGACATGTGTTTGGTTCCGGAGTCACCTAGTGCAG | 12300 fluorescence intensity (a.u.) |
| CCCAAAGTCCACACAAACTTTCGATTCGATTTCTCCGATCCGGAGTCACCTAGTGCAG | 8100 fluorescence intensity (a.u.) |
| AAGCGCCGACTCTTGTTCACATACATCACAACCTCACGCGCGGAGTCACCTAGTGCAG | 11100 fluorescence intensity (a.u.) |
| GGGATGCAGTTTAGGTTTTGCGTTATTCCTTTTCTGTTCCCGGAGTCACCTAGTGCAG | 9720 fluorescence intensity (a.u.) |
| GATAGCTCTCTGTTCTTGCATTGGTTTTGCTTCCCTCTGCCGGAGTCACCTAGTGCAG | 8540 fluorescence intensity (a.u.) |
| GAGAGAGTACTTCTTCTTCCAACGTCGTAGTCTTTTCAATCGGAGTCACCTAGTGCAG | 9540 fluorescence intensity (a.u.) |
| TACCTACCTACACCCGCCCACCCCGTCCACCGCGCCACTACGGAGTCACCTAGTGCAG | 9620 fluorescence intensity (a.u.) |
| TTGTTGGGTGCTGAATTGCTGATGTGGTGGGGTGACATGACGGAGTCACCTAGTGCAG | 12500 fluorescence intensity (a.u.) |
| ACCCCGAGCTCTTCCTCGCCTCGCCGATCGCCGCGCCGCTCGGAGTCACCTAGTGCAG | 9900 fluorescence intensity (a.u.) |
| CGTATCACTGTAGCCCAATCACGACATATTATCATCTACTCGGAGTCACCTAGTGCAG | 9980 fluorescence intensity (a.u.) |
| CCTTCTCCACTCTTCTTCTCAAATCCTCTCTCTTCCTCTTCGGAGTCACCTAGTGCAG | 9160 fluorescence intensity (a.u.) |

Part of the list above, bar-delimited.
Sequence | binding signal
TTGTTGGGTGCTGAATTGCTGATGTGGTGGGGTGACATGACGGAGTCACCTAGTGCAG | 12500 fluorescence intensity (a.u.)
ACCCCGAGCTCTTCCTCGCCTCGCCGATCGCCGCGCCGCTCGGAGTCACCTAGTGCAG | 9900 fluorescence intensity (a.u.)
CGTATCACTGTAGCCCAATCACGACATATTATCATCTACTCGGAGTCACCTAGTGCAG | 9980 fluorescence intensity (a.u.)
CCTTCTCCACTCTTCTTCTCAAATCCTCTCTCTTCCTCTTCGGAGTCACCTAGTGCAG | 9160 fluorescence intensity (a.u.)

(next part)

| Sequence | binding signal |
| --- | --- |
| GCCCCAGCCGCCGCCACCGCCGCCGCCGCCGTCCTCCATGCGGAGTCACCTAGTGCAG | 9520 fluorescence intensity (a.u.) |
| CTTATCCCCGTTTGTTTAACTTCTCATTATTTATGCTCCGCGGAGTCACCTAGTGCAG | 9050 fluorescence intensity (a.u.) |
| TCATATCCGCAGCCTTGTTCTTGCTGTTCTCACTAATCAACGGAGTCACCTAGTGCAG | 9580 fluorescence intensity (a.u.) |
| ATTAGTAGGCTACACATGTTCTTCCTTTGTTTATCTAGTTCGGAGTCACCTAGTGCAG | 9930 fluorescence intensity (a.u.) |
| GCCCGTCGCTCCAGCAGCTGCCACCCGCGCGCGCCGCCGCCGGAGTCACCTAGTGCAG | 10700 fluorescence intensity (a.u.) |
| GGGTTTTGGAGTGGTGGTGGTGGAGGATTGGAGTTGGGGTCGGAGTCACCTAGTGCAG | 11600 fluorescence intensity (a.u.) |
| GCTTTTACTCTGCTTCCTCTGTCTCACTCGCTGCTCTGTACGGAGTCACCTAGTGCAG | 12300 fluorescence intensity (a.u.) |
| ACTGGTGGCACATTGTAGATATTGCAAAATTCGTTTCCAACGGAGTCACCTAGTGCAG | 8120 fluorescence intensity (a.u.) |
| TAGTACATCCATCCATCCATTCACTTCCATCCACGGATCACGGAGTCACCTAGTGCAG | 10300 fluorescence intensity (a.u.) |
| TTGTGTTTATATAATCCTCCACCTCCGCGCACGTCTTGATCGGAGTCACCTAGTGCAG | 9220 fluorescence intensity (a.u.) |
| GCTACTAGTCTACCTTATAATCCACCTACTGGGTCTTACACGGAGTCACCTAGTGCAG | 10800 fluorescence intensity (a.u.) |
| ATTGCCTTACTTGTTGCACTATGGAGGTCCTGAGAGCCTTCGGAGTCACCTAGTGCAG | 8110 fluorescence intensity (a.u.) |
| TTCTATCCATTTTCATTTTCCATTTTTCTATTTAGTTTTTCGGAGTCACCTAGTGCAG | 12000 fluorescence intensity (a.u.) |
| CCACACCCATTGCCACCTTCTGCGCGCTACTAAGGGCCGCCGGAGTCACCTAGTGCAG | 10700 fluorescence intensity (a.u.) |
| ATCACGCAATCCCGGCTCTCTTCTTTGTTCCCGCGCGTGGCGGAGTCACCTAGTGCAG | 10400 fluorescence intensity (a.u.) |
| ACCCACAACATCACAGCACGGTTGCCGCTTGCTCCGGTGTCGGAGTCACCTAGTGCAG | 8160 fluorescence intensity (a.u.) |
| GTTATAGGCCTTGATGAGTTATAGCACTTTGTTATTGATACGGAGTCACCTAGTGCAG | 8140 fluorescence intensity (a.u.) |
| CGTTGGTGTGGGAGAAGATCCATAATGTTGTTGGGTATTGCGGAGTCACCTAGTGCAG | 10600 fluorescence intensity (a.u.) |
| TATATTTTGTTTTTGTCTCTAATATAGGTTTATAACTAGCCGGAGTCACCTAGTGCAG | 8570 fluorescence intensity (a.u.) |
| ACTACCTTCTCTTCAACACCCAAAAGATCATCTCTTGAACCGGAGTCACCTAGTGCAG | 8970 fluorescence intensity (a.u.) |
| CGAGCTGCTTCTTCGTCTCCAACTTCCCTTATCTCTATCACGGAGTCACCTAGTGCAG | 10500 fluorescence intensity (a.u.) |
| AATTGTTGACTAATCGATTCATGCAGTTACGTACTGTCATCGGAGTCACCTAGTGCAG | 8930 fluorescence intensity (a.u.) |
| CACTGCCCTGTTCATCTCTTTCTTTTTTATTCGATTCCTCCGGAGTCACCTAGTGCAG | 11600 fluorescence intensity (a.u.) |
| CATGCCAGCCCATGCCTTCCCGTCCCTAGATCCGCCATATCGGAGTCACCTAGTGCAG | 8290 fluorescence intensity (a.u.) |
| GTTTTTTTTACCACCCACAGCACCGAGCCGCTGACCTTATCGGAGTCACCTAGTGCAG | 8410 fluorescence intensity (a.u.) |
| TACATGGGCAACAGCCTTCCGTGGGCTAGTACTTATTCGGCGGAGTCACCTAGTGCAG | 8090 fluorescence intensity (a.u.) |
| GGGATGATTGCTTCTGGATCTTGTGGGGATTTGTAAGTCACGGAGTCACCTAGTGCAG | 11700 fluorescence intensity (a.u.) |
